# Measured values published in the supplement of paper PMC10077471.
# The full ranking holds about 1,900 compounds; the median of “excess over highest single agent (ExcessHSA) synergy score, 6x6 matrix” is about -83, and the lowest 2% start at about -370. Some of the results follow.
# Test system: NCI-H446
# Test: excess over highest single agent (ExcessHSA) synergy score, 6x6 matrix; higher = less synergy (more negative = stronger synergy)
# Conditions: 72 h; CellTiter-Glo viability
row,SMILES,excess over highest single agent
1,CCCCn1c(=O)n(Cc2ccccc2F)c(=O)c2[nH]c(Cc3ccc(NC(C)=O)cc3)nc21 + Cc1sc2c(c1C)C(c1ccc(Cl)cc1)=N[C@@H](CC(=O)OC(C)(C)C)c1nnc(C)n1-2 [NCGC00250412-19],-144
2,Nc1ccc(-c2ccc3ncc4ccc(=O)n(-c5cccc(C(F)(F)F)c5)c4c3c2)cn1 + Cc1sc2c(c1C)C(c1ccc(Cl)cc1)=N[C@@H](CC(=O)OC(C)(C)C)c1nnc(C)n1-2 [NCGC00250412-19],-131
3,N/C(=N\C(=O)c1nc(Cl)c(N)nc1N)NCc1ccccc1 + Cc1sc2c(c1C)C(c1ccc(Cl)cc1)=N[C@@H](CC(=O)OC(C)(C)C)c1nnc(C)n1-2 [NCGC00250412-19],-90.4
4,CCCCC[C@H](O)/C=C/[C@H]1[C@H](O)CC(=O)[C@@H]1C/C=C\CCCC(=O)O + Cc1sc2c(c1C)C(c1ccc(Cl)cc1)=N[C@@H](CC(=O)OC(C)(C)C)c1nnc(C)n1-2 [NCGC00250412-19],166
5,CCOc1cc(C(=O)Nc2ccc(Cl)c(-c3nc4ccccc4[nH]3)c2)cc(OCC)c1OCC + Cc1sc2c(c1C)C(c1ccc(Cl)cc1)=N[C@@H](CC(=O)OC(C)(C)C)c1nnc(C)n1-2 [NCGC00250412-19],-16
6,Cc1ccccc1C(C(=O)NC1CCCCC1)N(C(=O)Cn1ccnc1C)c1cccc(F)c1 (stereo not given) + Cc1sc2c(c1C)C(c1ccc(Cl)cc1)=N[C@@H](CC(=O)OC(C)(C)C)c1nnc(C)n1-2 [NCGC00250412-19],-207
7,O[C@@H](CNC[C@H](O)[C@H]1CCc2cc(F)ccc2O1)[C@@H]1CCc2cc(F)ccc2O1 + Cc1sc2c(c1C)C(c1ccc(Cl)cc1)=N[C@@H](CC(=O)OC(C)(C)C)c1nnc(C)n1-2 [NCGC00250412-19],-95.2
8,O=C(O)c1cc(=O)[nH]c(=O)[nH]1 + Cc1sc2c(c1C)C(c1ccc(Cl)cc1)=N[C@@H](CC(=O)OC(C)(C)C)c1nnc(C)n1-2 [NCGC00250412-19],0.93
9,O=c1n(CCCN2CCN(c3cccc(Cl)c3)CC2)nc2ccccn12 + Cc1sc2c(c1C)C(c1ccc(Cl)cc1)=N[C@@H](CC(=O)OC(C)(C)C)c1nnc(C)n1-2 [NCGC00250412-19],7.14
10,Oc1ccc(-c2nc(-c3ccc(F)cc3)c(-c3ccncc3)[nH]2)cc1 + Cc1sc2c(c1C)C(c1ccc(Cl)cc1)=N[C@@H](CC(=O)OC(C)(C)C)c1nnc(C)n1-2 [NCGC00250412-19],-11
11,CCC(NC(C)C)C(O)c1ccc(O)c2[nH]c(=O)ccc12 (stereo not given) + Cc1sc2c(c1C)C(c1ccc(Cl)cc1)=N[C@@H](CC(=O)OC(C)(C)C)c1nnc(C)n1-2 [NCGC00250412-19],-103
12,COc1ccc2c(c1)[C@]13CCCC[C@@H]1[C@H](C2)N(C)CC3 + Cc1sc2c(c1C)C(c1ccc(Cl)cc1)=N[C@@H](CC(=O)OC(C)(C)C)c1nnc(C)n1-2 [NCGC00250412-19],30.1
13,O=C(NC[C@H](O)CO)c1ccncc1Nc1ccc(I)cc1F + Cc1sc2c(c1C)C(c1ccc(Cl)cc1)=N[C@@H](CC(=O)OC(C)(C)C)c1nnc(C)n1-2 [NCGC00250412-19],-207
14,O=C(O)c1ccc2cc(-c3ccc(O)c(C45CC6CC(CC(C6)C4)C5)c3)ccc2c1 + Cc1sc2c(c1C)C(c1ccc(Cl)cc1)=N[C@@H](CC(=O)OC(C)(C)C)c1nnc(C)n1-2 [NCGC00250412-19],-225
15,C=C[C@H]1CN2CC[C@H]1C[C@H]2[C@H](O)c1ccnc2ccccc12 + Cc1sc2c(c1C)C(c1ccc(Cl)cc1)=N[C@@H](CC(=O)OC(C)(C)C)c1nnc(C)n1-2 [NCGC00250412-19],-73.2
16,Cc1ncc([N+](=O)[O-])n1CC(C)O (stereo not given) + Cc1sc2c(c1C)C(c1ccc(Cl)cc1)=N[C@@H](CC(=O)OC(C)(C)C)c1nnc(C)n1-2 [NCGC00250412-19],112
17,c1cc(N[C@@H]2CCNC2)nc(-c2cnc3ccc(-c4cn[nH]c4)cn23)c1 + Cc1sc2c(c1C)C(c1ccc(Cl)cc1)=N[C@@H](CC(=O)OC(C)(C)C)c1nnc(C)n1-2 [NCGC00250412-19],-284
18,C/C=C(/C(=C/C)c1ccc(O)cc1)c1ccc(O)cc1 + Cc1sc2c(c1C)C(c1ccc(Cl)cc1)=N[C@@H](CC(=O)OC(C)(C)C)c1nnc(C)n1-2 [NCGC00250412-19],-25.6
19,OCCn1cc(-c2cnc3nnn(Cc4ccc5ncccc5c4)c3n2)cn1 + Cc1sc2c(c1C)C(c1ccc(Cl)cc1)=N[C@@H](CC(=O)OC(C)(C)C)c1nnc(C)n1-2 [NCGC00250412-19],-235
20,O=[N+]([O-])c1ccc(Nc2ccccc2-c2ccccc2)c2nonc12 + Cc1sc2c(c1C)C(c1ccc(Cl)cc1)=N[C@@H](CC(=O)OC(C)(C)C)c1nnc(C)n1-2 [NCGC00250412-19],-89.8

row,SMILES,excess over highest single agent
1,C[C@]12CCC(=O)C=C1[C@@H]1C[C@@H]1[C@H]1[C@@H]3[C@@H]4C[C@@H]4[C@@]4(CCC(=O)O4)[C@@]3(C)CC[C@@H]12 + Cc1sc2c(c1C)C(c1ccc(Cl)cc1)=N[C@@H](CC(=O)OC(C)(C)C)c1nnc(C)n1-2 [NCGC00250412-19],-150
2,COc1ccc2cc([C@H](C)C(=O)O)ccc2c1 + Cc1sc2c(c1C)C(c1ccc(Cl)cc1)=N[C@@H](CC(=O)OC(C)(C)C)c1nnc(C)n1-2 [NCGC00250412-19],-82.6
3,Cc1ccccc1-n1c(Cn2cnc3c(N)ncnc32)nc2cccc(C)c2c1=O + Cc1sc2c(c1C)C(c1ccc(Cl)cc1)=N[C@@H](CC(=O)OC(C)(C)C)c1nnc(C)n1-2 [NCGC00250412-19],-164
4,OC1CCC(Nc2ncc3nc(Nc4c(F)cc(F)cc4F)n([C@@H]4CCOC4)c3n2)CC1 (stereo not given in full) + Cc1sc2c(c1C)C(c1ccc(Cl)cc1)=N[C@@H](CC(=O)OC(C)(C)C)c1nnc(C)n1-2 [NCGC00250412-19],17.3
5,COc1ccc(C2=N[C@@H](c3ccc(Cl)cc3)[C@@H](c3ccc(Cl)cc3)N2C(=O)N2CCNC(=O)C2)c(OC(C)C)c1 + Cc1sc2c(c1C)C(c1ccc(Cl)cc1)=N[C@@H](CC(=O)OC(C)(C)C)c1nnc(C)n1-2 [NCGC00250412-19],-130
6,NC(=O)c1ccc(I)c([N+](=O)[O-])c1 + Cc1sc2c(c1C)C(c1ccc(Cl)cc1)=N[C@@H](CC(=O)OC(C)(C)C)c1nnc(C)n1-2 [NCGC00250412-19],-34.5
7,c1ccc(-c2oc3ncnc(NC[C@@H]4CCCO4)c3c2-c2ccccc2)cc1 + Cc1sc2c(c1C)C(c1ccc(Cl)cc1)=N[C@@H](CC(=O)OC(C)(C)C)c1nnc(C)n1-2 [NCGC00250412-19],91.3
8,COCC1(CO)C(=O)C2CCN1CC2 (stereo not given) + Cc1sc2c(c1C)C(c1ccc(Cl)cc1)=N[C@@H](CC(=O)OC(C)(C)C)c1nnc(C)n1-2 [NCGC00250412-19],-60.5
9,O=C(O)c1cc(/N=N/c2ccc(S(=O)(=O)Nc3ccccn3)cc2)ccc1O + Cc1sc2c(c1C)C(c1ccc(Cl)cc1)=N[C@@H](CC(=O)OC(C)(C)C)c1nnc(C)n1-2 [NCGC00250412-19],-71.1
10,O=C(O)c1ccc(O)c2ncc(N3CCOCC3)cc12 + Cc1sc2c(c1C)C(c1ccc(Cl)cc1)=N[C@@H](CC(=O)OC(C)(C)C)c1nnc(C)n1-2 [NCGC00250412-19],280
11,COc1cc2ncnc(-n3nc(-c4ccccn4)nc3N)c2cc1OC + Cc1sc2c(c1C)C(c1ccc(Cl)cc1)=N[C@@H](CC(=O)OC(C)(C)C)c1nnc(C)n1-2 [NCGC00250412-19],44.6
12,C[C@]12CCC3=C4CCC(=O)C=C4CC[C@H]3[C@@H]1CC[C@@]2(O)CC#N + Cc1sc2c(c1C)C(c1ccc(Cl)cc1)=N[C@@H](CC(=O)OC(C)(C)C)c1nnc(C)n1-2 [NCGC00250412-19],23.5
13,O=C(O)[C@H](CC(=O)N1C[C@H]2CCCC[C@H]2C1)Cc1ccccc1 + Cc1sc2c(c1C)C(c1ccc(Cl)cc1)=N[C@@H](CC(=O)OC(C)(C)C)c1nnc(C)n1-2 [NCGC00250412-19],-141
14,c1coc(CNc2ncnc3[nH]cnc23)c1 + Cc1sc2c(c1C)C(c1ccc(Cl)cc1)=N[C@@H](CC(=O)OC(C)(C)C)c1nnc(C)n1-2 [NCGC00250412-19],40.4
15,C[C@@H]1C[C@H]2[C@@H]3CCC4=CC(=O)C=C[C@]4(C)[C@@]3(Cl)[C@@H](O)C[C@]2(C)[C@@]1(OC(=O)c1ccco1)C(=O)CCl + Cc1sc2c(c1C)C(c1ccc(Cl)cc1)=N[C@@H](CC(=O)OC(C)(C)C)c1nnc(C)n1-2 [NCGC00250412-19],13.7
16,CCCCc1ccc2[nH]c(NC(=O)OC)nc2c1 + Cc1sc2c(c1C)C(c1ccc(Cl)cc1)=N[C@@H](CC(=O)OC(C)(C)C)c1nnc(C)n1-2 [NCGC00250412-19],-146
17,COc1cc2ncnc(Nc3cccc(Cl)c3)c2cc1OC + Cc1sc2c(c1C)C(c1ccc(Cl)cc1)=N[C@@H](CC(=O)OC(C)(C)C)c1nnc(C)n1-2 [NCGC00250412-19],-52.1
18,O=c1oc2cc(O)ccc2s1 + Cc1sc2c(c1C)C(c1ccc(Cl)cc1)=N[C@@H](CC(=O)OC(C)(C)C)c1nnc(C)n1-2 [NCGC00250412-19],-72.8
19,CCn1c(-c2nonc2N)nc2c(C#CC(C)(C)O)ncc(OC[C@H]3CCCNC3)c21 + Cc1sc2c(c1C)C(c1ccc(Cl)cc1)=N[C@@H](CC(=O)OC(C)(C)C)c1nnc(C)n1-2 [NCGC00250412-19],-162
20,CCN(CC)CCOc1ccc(Nc2ncc3cc(-c4c(Cl)cccc4Cl)c(=O)n(C)c3n2)cc1 + Cc1sc2c(c1C)C(c1ccc(Cl)cc1)=N[C@@H](CC(=O)OC(C)(C)C)c1nnc(C)n1-2 [NCGC00250412-19],-126

# Some values from above:
# Entry for C[C@]12CCC3=C4CCC(=O)C=C4CC[C@H]3[C@@H]1CC[C@@]2(O)CC#N + Cc1sc2c(c1C)C(c1ccc(Cl)cc1)=N[C@@H](CC(=O)OC(C)(C)C)c1nnc(C)n1-2 [NCGC00250412-19] under excess over highest single agent: 23.5
# Entry for Cc1ccccc1-n1c(Cn2cnc3c(N)ncnc32)nc2cccc(C)c2c1=O + Cc1sc2c(c1C)C(c1ccc(Cl)cc1)=N[C@@H](CC(=O)OC(C)(C)C)c1nnc(C)n1-2 [NCGC00250412-19] under excess over highest single agent: -164
# Entry for O=c1oc2cc(O)ccc2s1 + Cc1sc2c(c1C)C(c1ccc(Cl)cc1)=N[C@@H](CC(=O)OC(C)(C)C)c1nnc(C)n1-2 [NCGC00250412-19] under excess over highest single agent: -72.8
